# The list shows a part of the results.
# B1: CBP21 (Serratia marcescens), O83009 (protein)
# chain: MNKTSRTLLSLGLLSAAMFGVSQQANAHGYVESPASRAYQCKLQLNTQCGSVQAEPQSVEGLKGFPQAGPADGHIASADKSTFFELDQQTPTRWNKLNLKTGPNSFTWKLTARHSTTSWRYFITKPNWDASQPLTRASFDLTPFCQFNDGGAIPAAQVTHQCNIPADRSGSHVILAVWDIADTANAFYQAIDVNLSK
# Assays:
# Experiment in all cases: glycan array binding signal (z-score within array); higher = stronger binding
# Conditions in all cases: glycan notation: IUPAC condensed, linker removed; mutation: Y54A
# [1] = target: Gal(b1-3)GlcNAc(b1-2)Man(a1-3)[Gal(b1-3)GlcNAc(b1-2)Man(a1-6)]Man(b1-4)GlcNAc(b1-4)GlcNAc
# Procedure, shortened: (§1)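 From the Consortium for Functional Glycomics database, 3228 arrays were curated, keeping only those whose protein sequence was available. Binding is given as a within-array Z-score averaged across arrays sharing a protein sequence and across linkers. Negative Z-scores can be read as non-binding.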
# [2] = target: Gal(b1-3)GlcNAc(b1-2)Man(a1-3)[Gal(b1-3)GlcNAc(b1-2)Man(a1-6)]Man(b1-4)GlcNAc(b1-4)[Fuc(a1-6)]GlcNAc
# Procedure, shortened: as §1
# [3] = target: Gal(b1-3)GlcNAc(b1-2)Man(a1-3)[GlcNAc(b1-4)][Gal(b1-3)GlcNAc(b1-2)Man(a1-6)]Man(b1-4)GlcNAc(b1-4)GlcNAc
# Procedure, shortened: as §1
# [4] = target: Gal(b1-3)GlcNAc(b1-2)[Gal(b1-3)GlcNAc(b1-6)]Man(a1-6)[Gal(b1-3)GlcNAc(b1-2)Man(a1-3)]Man(b1-4)GlcNAc(b1-4)GlcNAc
# Procedure, shortened: as §1
# [5] = target: Gal(b1-3)GlcNAc(b1-3)Gal(b1-3)GlcNAc
# Procedure, shortened: as §1
# [6] = target: Gal(b1-3)GlcNAc(b1-3)Gal(b1-4)Glc
# Procedure, shortened: as §1
# [7] = target: Gal(b1-3)GlcNAc(b1-3)Gal(b1-4)GlcNAc
# Procedure, shortened: as §1
# [8] = target: Gal(b1-3)GlcNAc(b1-3)Gal(b1-4)GlcNAc(b1-2)Man(a1-3)[Gal(b1-3)GlcNAc(b1-3)Gal(b1-4)GlcNAc(b1-2)Man(a1-6)]Man(b1-4)GlcNAc(b1-4)GlcNAc
# Procedure, shortened: as §1
# [9] = target: Gal(b1-3)GlcNAc(b1-3)Gal(b1-4)GlcNAc(b1-2)[Gal(b1-3)GlcNAc(b1-3)Gal(b1-4)GlcNAc(b1-6)]Man(a1-6)[Gal(b1-3)GlcNAc(b1-3)Gal(b1-4)GlcNAc(b1-2)Man(a1-3)]Man(b1-4)GlcNAc(b1-4)[Fuc(a1-6)]GlcNAc
# Procedure, shortened: as §1
# [10] = target: Gal(b1-3)GlcNAc(b1-3)Gal(b1-4)GlcNAc(b1-3)Gal(b1-4)GlcNAc(b1-2)[Gal(b1-3)GlcNAc(b1-3)Gal(b1-4)GlcNAc(b1-3)Gal(b1-4)GlcNAc(b1-6)]Man(a1-6)[Gal(b1-3)GlcNAc(b1-3)Gal(b1-4)GlcNAc(b1-3)Gal(b1-4)GlcNAc(b1-2)Man(a1-3)]Man(b1-4)GlcNAc(b1-4)[Fuc(a1-6)]GlcNAc
# Procedure, shortened: as §1
# [11] = target: Gal(b1-3)GlcNAc(b1-3)Gal(b1-4)GlcNAc(b1-6)[Gal(b1-3)GlcNAc(b1-3)]Gal(b1-4)Glc
# Procedure, shortened: as §1
# [12] = target: Gal(b1-3)GlcNAc(b1-3)Gal(b1-4)[Fuc(a1-3)]GlcNAc
# Procedure, shortened: as §1
# [13] = target: Gal(b1-3)GlcNAc(b1-3)Gal(b1-4)[Fuc(a1-3)]GlcNAc(b1-6)[Gal(b1-3)GlcNAc(b1-3)]Gal(b1-4)Glc
# Procedure, shortened: as §1
# [14] = target: Gal(b1-3)GlcNAc(b1-3)GalNAc
# Procedure, shortened: as §1
# [15] = target: Gal(b1-3)GlcNAc(b1-6)Gal(b1-4)GlcNAc
# Procedure, shortened: as §1
# [16] = target: Gal(b1-3)GlcNAc(b1-6)GalNAc
# Procedure, shortened: as §1
# [17] = target: Gal(b1-3)GlcNAc(b1-6)[Gal(b1-3)]GalNAc
# Procedure, shortened: as §1
# Gal(b1-3)GlcNAc6S = target: Gal(b1-3)GlcNAc6S
# Procedure, shortened: as §1
# [18] = target: Gal(b1-3)[Fuc(a1-4)]GlcNAc
# Procedure, shortened: as §1
# [19] = target: Gal(b1-3)[Fuc(a1-4)]GlcNAc(b1-2)Man
# Procedure, shortened: as §1
# [20] = target: Gal(b1-3)[Fuc(a1-4)]GlcNAc(b1-2)Man(a1-3)[Gal(b1-3)[Fuc(a1-4)]GlcNAc(b1-2)Man(a1-6)]Man(b1-4)GlcNAc(b1-4)[Fuc(a1-6)]GlcNAc
# Procedure, shortened: as §1
# [21] = target: Gal(b1-3)[Fuc(a1-4)]GlcNAc(b1-3)Gal(b1-3)[Fuc(a1-4)]GlcNAc
# Procedure, shortened: as §1
# [22] = target: Gal(b1-3)[Fuc(a1-4)]GlcNAc(b1-3)Gal(b1-4)[Fuc(a1-3)]GlcNAc
# Procedure, shortened: as §1
# [23] = target: Gal(b1-3)[Fuc(a1-4)]GlcNAc(b1-6)GalNAc
# Procedure, shortened: as §1
# [24] = target: Gal(b1-3)[GlcNAc(b1-6)]GalNAc
# Procedure, shortened: as §1
# [25] = target: Gal(b1-3)[Neu5Ac(a2-6)]GalNAc
# Procedure, shortened: as §1
# [26] = target: Gal(b1-3)[Neu5Ac(a2-6)]GlcNAc(b1-4)Gal(b1-4)Glc
# Procedure, shortened: as §1
# [27] = target: Gal(b1-3)[Neu5Ac(b2-6)]GalNAc
# Procedure, shortened: as §1
# Gal(b1-4)Gal = target: Gal(b1-4)Gal
# Procedure, shortened: as §1
# [28] = target: Gal(b1-4)GalNAc(a1-3)[Fuc(a1-2)]Gal(b1-4)GlcNAc
# Procedure, shortened: as §1
# [29] = target: Gal(b1-4)GalNAc(b1-3)[Fuc(a1-2)]Gal(b1-4)GlcNAc
# Procedure, shortened: as §1
# Gal(b1-4)Glc = target: Gal(b1-4)Glc
# Procedure, shortened: as §1
# Gal(b1-4)Glc6S = target: Gal(b1-4)Glc6S
# Procedure, shortened: as §1
# Gal(b1-4)GlcNAc = target: Gal(b1-4)GlcNAc
# Procedure, shortened: as §1
# [30] = target: Gal(b1-4)GlcNAc(a1-6)Gal(b1-4)GlcNAc
# Procedure, shortened: as §1
# Gal(b1-4)GlcNAc(b1-2)Man = target: Gal(b1-4)GlcNAc(b1-2)Man
# Procedure, shortened: as §1
# [31] = target: Gal(b1-4)GlcNAc(b1-2)Man(a1-3)Man(b1-4)GlcNAc(b1-4)GlcNAc
# Procedure, shortened: as §1
# [32] = target: Gal(b1-4)GlcNAc(b1-2)Man(a1-3)[Gal(b1-4)GlcNAc(b1-2)Man(a1-6)]Man(b1-4)GlcNAc(b1-4)GlcNAc
# Procedure, shortened: as §1
# [33] = target: Gal(b1-4)GlcNAc(b1-2)Man(a1-3)[Gal(b1-4)GlcNAc(b1-2)Man(a1-6)]Man(b1-4)GlcNAc(b1-4)[Fuc(a1-6)]GlcNAc
# Procedure, shortened: as §1
# [34] = target: Gal(b1-4)GlcNAc(b1-2)Man(a1-3)[Gal(b1-4)GlcNAc(b1-2)Man(a1-6)][Gal(b1-4)GlcNAc(b1-4)]Man(b1-4)GlcNAc(b1-4)[Fuc(a1-6)]GlcNAc
# Procedure, shortened: as §1
# [35] = target: Gal(b1-4)GlcNAc(b1-2)Man(a1-3)[Gal(b1-4)GlcNAc(b1-2)Man(a1-6)][GlcNAc(b1-4)]Man(b1-4)GlcNAc(b1-4)[Fuc(a1-6)]GlcNAc
# Procedure, shortened: as §1
# [36] = target: Gal(b1-4)GlcNAc(b1-2)Man(a1-3)[GlcNAc(b1-2)Man(a1-6)]Man(b1-4)GlcNAc(b1-4)GlcNAc
# Procedure, shortened: as §1
# [37] = target: Gal(b1-4)GlcNAc(b1-2)Man(a1-3)[GlcNAc(b1-4)][Gal(b1-4)GlcNAc(b1-2)Man(a1-6)]Man(b1-4)GlcNAc(b1-4)GlcNAc
# Procedure, shortened: as §1
# [38] = target: Gal(b1-4)GlcNAc(b1-2)Man(a1-3)[Man(a1-6)]Man(b1-4)GlcNAc(b1-4)GlcNAc
# Procedure, shortened: as §1
# [39] = target: Gal(b1-4)GlcNAc(b1-2)Man(a1-6)Man(b1-4)GlcNAc(b1-4)GlcNAc
# Procedure, shortened: as §1
binder,measurement,setting,value
B1,glycan array binding signal (z-score),[1],-0.113
same,glycan array binding signal (z-score),[2],-1.39
same,glycan array binding signal (z-score),[3],-0.459
same,glycan array binding signal (z-score),[4],-0.408
same,glycan array binding signal (z-score),[5],0.339
same,glycan array binding signal (z-score),[6],1.22
same,glycan array binding signal (z-score),[7],-0.479
same,glycan array binding signal (z-score),[8],2.73
same,glycan array binding signal (z-score),[9],-0.069
same,glycan array binding signal (z-score),[10],0.349
same,glycan array binding signal (z-score),[11],0.206
same,glycan array binding signal (z-score),[12],-0.001
same,glycan array binding signal (z-score),[13],-0.866
same,glycan array binding signal (z-score),[14],1.21
same,glycan array binding signal (z-score),[15],-0.48
same,glycan array binding signal (z-score),[16],-0.691
same,glycan array binding signal (z-score),[17],-0.318
same,glycan array binding signal (z-score),Gal(b1-3)GlcNAc6S,-0.888
same,glycan array binding signal (z-score),[18],-0.359
same,glycan array binding signal (z-score),[19],0.608
same,glycan array binding signal (z-score),[20],0.588
same,glycan array binding signal (z-score),[21],-0.221
same,glycan array binding signal (z-score),[22],-0.201
same,glycan array binding signal (z-score),[23],-0.717
same,glycan array binding signal (z-score),[24],-0.666
same,glycan array binding signal (z-score),[25],-0.166
same,glycan array binding signal (z-score),[26],-0.271
same,glycan array binding signal (z-score),[27],-0.397
same,glycan array binding signal (z-score),Gal(b1-4)Gal,1.25
same,glycan array binding signal (z-score),[28],-1.45
same,glycan array binding signal (z-score),[29],-0.864
same,glycan array binding signal (z-score),Gal(b1-4)Glc,0.106
same,glycan array binding signal (z-score),Gal(b1-4)Glc6S,-0.383
same,glycan array binding signal (z-score),Gal(b1-4)GlcNAc,-0.372
same,glycan array binding signal (z-score),[30],0.859
same,glycan array binding signal (z-score),Gal(b1-4)GlcNAc(b1-2)Man,-0.757
same,glycan array binding signal (z-score),[31],0.423
same,glycan array binding signal (z-score),[32],-0.442
same,glycan array binding signal (z-score),[33],-0.168
same,glycan array binding signal (z-score),[34],-0.748
same,glycan array binding signal (z-score),[35],-0.111
same,glycan array binding signal (z-score),[36],0.583
same,glycan array binding signal (z-score),[37],-0.743
same,glycan array binding signal (z-score),[38],0.166
same,glycan array binding signal (z-score),[39],-0.373

# As a working copy, part of the list above:
binder,measurement,setting,value
B1,glycan array binding signal (z-score),[25],-0.166
same,glycan array binding signal (z-score),[26],-0.271
same,glycan array binding signal (z-score),[27],-0.397
same,glycan array binding signal (z-score),Gal(b1-4)Gal,1.25
same,glycan array binding signal (z-score),[28],-1.45
same,glycan array binding signal (z-score),[29],-0.864
same,glycan array binding signal (z-score),Gal(b1-4)Glc,0.106
same,glycan array binding signal (z-score),Gal(b1-4)Glc6S,-0.383
same,glycan array binding signal (z-score),Gal(b1-4)GlcNAc,-0.372

# Reference: the supplement of paper PMC8728848
